The results in this text go back to the supplement of paper PMC12578635.

± gives the standard deviation of the averaged measurements. The list shows a part of the results. Most values come without repeats; read them as rough.

The test system of the test is RAW 264.7 macrophages infected with S. aureus JE2-lux. The experiment in a line: host macrophage viability (CellTiter-Fluor) relative to DMSO vehicle; higher = more viable host cells. The settings on record: 10 µM; treatment time 4 h; gentamicin 50 µg/ml.
Regarding `Cc1ccc(S(=O)(=O)c2nccn3nc(-c4ccc(Cl)cc4)cc23)cc1`, the host macrophage viability came to 141%.

With `Cc1ccccc1NC(=O)CSc1cc[nH]c(=O)n1`, the host macrophage viability turned out to be 117%.

As to `COc1cccc(NC(=O)CCc2c(C)nn(-c3nc(C)c(C)s3)c2O)c1`, the host macrophage viability was found to be 115%.

Turning to `CC1(C)CC(=O)c2sc(NC(=O)c3cc(-c4cccs4)nc4ccccc34)nc2C1`, the host macrophage viability stood at 110%.

Consider `Cc1cc(C)c(S(=O)(=O)Nc2cnc(N3CCNCC3)c(C(=O)NC3CC3)c2)cc1C`, for which the host macrophage viability was 119%.

For `COc1cc(OC)c(NC(=O)C2CCCN(c3nc(C)nc4oc(C)c(C)c34)C2)cc1Cl` (stereo not given), the host macrophage viability amounted to 94.8%.

In the case of `N#Cc1c(N)nc(SCC(=O)Nc2ccccc2)c(C#N)c1-c1ccccc1`, the host macrophage viability worked out at 106%.

For `COC(=O)c1ccccc1NS(=O)(=O)c1cccc2cccnc12`, the host macrophage viability came out at 123%.

On to `COc1ccc(NC(=O)Nc2nc(SCC(=O)C(C)(C)C)ns2)cc1`, for which the host macrophage viability amounted to 76%.

Regarding `CCc1cccc(C)c1NC(=O)CSc1nnc2ccc(C(=O)Nc3cccc(C)c3)cn12`, the host macrophage viability is 119%.

`CCc1cc(-c2csc(S(=O)(=O)N3CC=C(c4ccccc4)CC3)c2)on1`: the host macrophage viability turned out to be 93.8%.

Turning to `Cc1ccc(-c2nc3sc(N4CCN(C(=O)c5cnccn5)CC4)nn3c2NC2CCCC2)cc1`, the host macrophage viability amounted to 104%.

With `COc1ccc(NC(=O)C2CCN(C(=O)Nc3cccc(Cl)c3)CC2)cc1OC`, the host macrophage viability worked out at 118%.

For the compound `COc1ccc2[nH]cc(CCNC(=O)c3ccc4nnc(C)n4c3)c2c1`, the host macrophage viability was determined as 114%.

In the case of `Cc1nc(N2CCCC2)ncc1C(=O)NC(c1ccccc1)c1cccnc1` (stereo not given), the host macrophage viability was 104%.

As for `CCCn1c(=O)c2cc(F)ccc2n2c(=S)[nH]nc12`, the host macrophage viability is 120%.

On to `CNc1n[nH]c(N)c1-c1nc(-c2ccc(OC)cc2)no1`, for which the host macrophage viability was determined as 94.6%.

As for `Cc1ccc2nc(Nc3ccc(Cl)cc3)c(C=O)c(=O)n2c1`, the host macrophage viability is 118%.

Turning to `COc1ccc(CC(=O)Nc2c3c(nn2-c2ccc(C)cc2)CSC3)cc1OC`, the host macrophage viability was determined as 103%.

With `CCOC(=O)c1ccc(N2C(=O)C3Sc4[nH]c(=O)sc4C(/C=C/c4ccccc4)C3C2=O)cc1` (stereo not given), the host macrophage viability was determined as 112%.

As to `Cc1nc2cccc(NC(=O)c3cc(=O)c4cc(C)c(C)cc4o3)c2[nH]1`, the host macrophage viability is 123%.

In the case of `Cc1ccc(S(=O)(=O)NCc2ccc3[nH]c(C)cc3c2)cc1`, the host macrophage viability was 124 ± 19%.

For the compound `COCCn1ccc2nc(C)c(C(=O)NCc3ccc(Br)cc3)cc2c1=O`, the host macrophage viability worked out at 122%.

In the case of `CCN(CC)C(=O)CSc1ccccc1[N+](=O)[O-]`, the host macrophage viability is 102%.

For the compound `O=C(CC1(O)C(=O)Nc2ccccc21)c1cccc(-n2cccc2)c1` (stereo not given), the host macrophage viability is 111%.

Regarding `O=C(NCC(c1ccc(Cl)cc1)N1CCCCC1)c1cc(-c2ccc3c(c2)OCCO3)on1` (stereo not given), the host macrophage viability is 99.5%.

For the compound `CCN(CC)c1cc(CNC(=O)Nc2cc(OC)cc(OC)c2)ccn1`, the host macrophage viability came out at 109%.

Turning to `CCN1CCN(C(=O)c2nn(-c3ccc(F)cc3)c3c(=O)n(C)cnc23)CC1`, the host macrophage viability is 95.9%.

`COc1ccc(C)cc1NC(=O)C1CCN(C(=O)Nc2ccccc2)CC1`: the host macrophage viability turned out to be 112%.

`N#C/C(=C/Nc1ccc(F)cc1[N+](=O)[O-])c1nc(-c2ccc(F)cc2)cs1`: the host macrophage viability was found to be 112 ± 8.1%.

In the case of `Cc1cc(=O)n2nc(CN(C(=O)C(C)C)c3ccccc3)nc2[nH]1`, the host macrophage viability was 91.4%.

Regarding `C=CCNC(=O)C(=O)Nc1ccc2c(c1)N(S(=O)(=O)c1cccs1)CCC2`, the host macrophage viability turned out to be 89.6%.

Regarding `Cc1nn2c(SCC(=O)c3cccc([N+](=O)[O-])c3)nnc2[nH]c1=O`, the host macrophage viability was determined as 105%.

As to `N#Cc1ccc(C(=O)Nc2cccc3c2C(=O)NC3=O)cc1`, the host macrophage viability amounted to 109%.

Take `CCN(CC)C(=O)c1sc2nc3c(cc2c1N)C(=O)CC(C)(C)C3`: the host macrophage viability stood at 117%.

As for `CCNC(=O)CC1Sc2ccc(C(F)(F)F)cc2NC1=O` (stereo not given), the host macrophage viability turned out to be 136%.

Regarding `CSc1nnc(C)c(=O)n1COC(=O)c1ccc(Cl)c([N+](=O)[O-])c1`, the host macrophage viability was found to be 103%.

For the compound `Cc1ccc2c(c1)C(c1ccc(F)cc1)N(C(=O)c1cc3ccccc3oc1=O)CC(=O)N2` (stereo not given), the host macrophage viability worked out at 121%.

Regarding `O=C1Nc2ccc(Br)cc2/C1=C1/SC(=S)N(NC(=O)c2ccncc2)C1=O`, the host macrophage viability is 90.8%.

On to `O=C(CNCc1cccnc1)Nc1ccc2c(c1)OCO2`, for which the host macrophage viability was found to be 128%.

For the compound `COc1ccc(Br)cc1-c1nc(Cn2nc(C)c3c(C)onc3c2=O)c(C)o1`, the host macrophage viability was 129%.

For `O=C(O)c1ccc(NS(=O)(=O)c2cc3c4c(cccc4c2)C(=O)NC3=O)cc1`, the host macrophage viability was 117%.

Regarding `COc1ccc2nc(-n3nc(C)c4c3NC(=O)CC4c3cc(F)ccc3F)sc2c1` (stereo not given), the host macrophage viability is 118%.

With `O=C(CCS(=O)(=O)c1ccc(F)cc1)Nc1ncc(S(=O)(=O)c2ccc([N+](=O)[O-])cc2)s1`, the host macrophage viability was 93.2%.

Regarding `COc1cc(NC(=O)c2cccc3nccnc23)ccc1NC(=O)C1CCCCC1`, the host macrophage viability worked out at 117%.

As for `Clc1ccc(-n2cc(-c3ccccc3)c3c(NCCCn4ccnc4)ncnc32)cc1`, the host macrophage viability turned out to be 117%.

Turning to `COc1ccccc1OCC(=O)N1c2ccccc2CC1C(N)=O` (stereo not given), the host macrophage viability came to 120%.

With `Cn1c(=O)c2c(SCC(=O)Nc3cccc(F)c3)nc(-c3ccc([N+](=O)[O-])cc3)nc2n(C)c1=O`, the host macrophage viability amounted to 112.4 ± 0.91%.

For the compound `CC(C)NC(=O)c1ccc(-c2ccc(F)cc2)nc1`, the host macrophage viability was 99.8%.

For `Cc1ccc(OCC(O)Cn2c(N(C)Cc3ccccc3)nc3c2c(=O)[nH]c(=O)n3C)cc1C` (stereo not given), the host macrophage viability worked out at 141%.

Consider `CC1(C)COc2ccc(NC(=O)CCc3ccccc3)cc2NC1=O`, for which the host macrophage viability came to 120%.

As for `COc1cccc(NC(=O)c2cnc(-c3ccc(C)cc3)nc2C)c1`, the host macrophage viability amounted to 102%.

Take `Nc1c(-c2nc(-c3ccc(Br)cc3)cs2)c2ccccn2c1C(=O)c1cccs1`: the host macrophage viability worked out at 112%.

Consider `N#CC1=C(SCC(=O)N(c2ccccc2)c2ccccc2)NC(=O)CC1c1ccco1` (stereo not given), for which the host macrophage viability was determined as 119%.

With `C#CCSc1nc2ccccc2n1C(=O)c1ccc(S(=O)(=O)N2CCOCC2)cc1`, the host macrophage viability stood at 99%.

In the case of `O=C1c2ccccc2C(=O)c2cc(S(=O)(=O)Nc3ccncc3)ccc21`, the host macrophage viability came out at 120%.

As to `CCOc1ccc2nc(NC(=O)c3cc4c(=O)n5cccc(C)c5nc4s3)sc2c1`, the host macrophage viability is 103%.

In the case of `COC(=O)c1sc2ccccc2c1NC(=O)COc1ccc(Cl)cc1Cl`, the host macrophage viability was 111 ± 8.7%.

Consider `COc1ccccc1NC(=O)Cn1c(C)nc2ccc(NC(=O)c3ccccc3)cc2c1=O`, for which the host macrophage viability was found to be 96%.

With `CCCc1cc(=O)[nH]c2nnc(SCc3cccc([N+](=O)[O-])c3)n12`, the host macrophage viability was 96.3%.

Turning to `O=C(Nc1nc2c(s1)CCc1ccccc1-2)c1ccc(N2C(=O)CCC2=O)cc1`, the host macrophage viability was determined as 106%.

Turning to `CCC(C)Nc1nc2c(C)cccn2c(=O)c1/C=N/c1ccc([N+](=O)[O-])cc1Cl` (stereo not given), the host macrophage viability amounted to 126%.

As for `Cc1cc(C)cc(-n2c(SCC(=O)Nc3ccc(C(N)=O)cc3)nc3c(c2=O)SCC3)c1`, the host macrophage viability was determined as 111%.

Regarding `O=C1N=C(N2CCN(c3ccccc3)CC2)S/C1=C/c1ccc(O)cc1`, the host macrophage viability came to 117 ± 6.7%.

As to `Oc1ccc(-c2n[nH]cc2-c2nc3ccccc3s2)c(O)c1`, the host macrophage viability is 129%.

Consider `CCOC(=O)c1c(-c2ccc(OC)cc2)csc1NC(=O)CSc1nnc2ccccn12`, for which the host macrophage viability amounted to 128%.

In the case of `COc1ccc(Cl)c2sc(N(Cc3cccnc3)C(=O)c3cccc(S(C)(=O)=O)c3)nc12`, the host macrophage viability was determined as 122%.

Take `Cc1n[nH]c2c1C1(C(=O)Nc3ccccc31)C(C#N)=C(N)O2` (stereo not given): the host macrophage viability is 116%.

Take `CCc1cccc(C)c1NC(=O)C1CCCN1C(=O)Nc1ccc(C)cc1` (stereo not given): the host macrophage viability is 116%.

For `Cc1nc2c(ccc3nc(NC(=O)c4ccccc4I)sc32)s1`, the host macrophage viability worked out at 117 ± 12%.

With `CNC(=O)c1ccsc1NC(=O)c1ccc(S(=O)(=O)N(C)C)cc1`, the host macrophage viability came out at 109%.

Take `Nc1ncnc(Sc2ccc(Cl)cc2)c1[N+](=O)[O-]`: the host macrophage viability came out at 99.7%.

`Cc1ccc(S(=O)(=O)c2nc(/C(C#N)=C\c3ccccc3)sc2Cl)cc1`: the host macrophage viability turned out to be 134%.

Regarding `Cc1ccc(C)c2[nH]c(=O)c(CCNC(=O)c3ccc([N+](=O)[O-])cc3)cc12`, the host macrophage viability came to 103%.

On to `COC(=O)c1ccc(C(=O)Nc2ccc3nc(SC)sc3c2)cc1`, for which the host macrophage viability amounted to 98.6 ± 10%.

In the case of `COc1ccc(Cl)c2sc(N3CCN(C(=O)C4COc5ccccc5O4)CC3)nc12` (stereo not given), the host macrophage viability turned out to be 115%.

With `Cn1nc(C(=O)N2CCOCC2)c2c1CCN(S(=O)(=O)c1cccc3nsnc13)C2`, the host macrophage viability was found to be 123%.

With `O=C(Nc1ccc2c(c1)C(=O)NC2=O)c1ccc(-c2nc3ccccc3s2)s1`, the host macrophage viability is 131%.

As to `CCOC(=O)CCc1c(C)[nH]c2nc(CO)nn2c1=O`, the host macrophage viability was 87.8%.

Take `Cc1c(C)n2c(SCc3ccc(C(F)(F)F)cc3)nnc2[nH]c1=O`: the host macrophage viability is 113%.

Take `O=C(Nc1cccc(I)c1)/C(O)=C1\C(=O)Nc2ccccc21`: the host macrophage viability stood at 114 ± 2.3%.

Regarding `O=C1C2C3CC(C2C(=O)N1c1ccccc1)C1C(c2ccc(O)cc2)c2sc(=O)[nH]c2SC31` (stereo not given), the host macrophage viability came out at 120%.

With `CCOC(=O)C1CCN(S(=O)(=O)CCNC(=O)c2ccc3c(c2)OCO3)CC1`, the host macrophage viability came out at 125%.

`O=C(CC1Nc2ccccc2NC1=O)Nc1cccc(C(=O)O)c1` (stereo not given): the host macrophage viability turned out to be 109%.

Consider `O=C(CSc1nc2ccccc2o1)OCC(=O)c1ccc(F)cc1`, for which the host macrophage viability worked out at 109 ± 7.5%.

On to `COc1ccc2nc(NC(=O)Cn3c(=O)c4cnc(-c5ccccc5)nc4n(C)c3=O)sc2c1`, for which the host macrophage viability was 133%.

Consider `C=CCn1c(SCC(=O)Nc2ccc3c(c2)OCCO3)nc2scc(-c3ccco3)c2c1=O`, for which the host macrophage viability stood at 100%.

In the case of `O=C(CC(C(=O)O)N1CCNCC1)Nc1ccc(Br)cc1` (stereo not given), the host macrophage viability worked out at 116%.

As for `CCc1ccc(NC(=O)CS(=O)CC(=O)Nc2ccc(-n3cnnn3)c(C)c2)cc1` (stereo not given), the host macrophage viability was 101%.

Turning to `COc1ccc(C(=O)CSc2nc(=O)n(Cc3cccnc3)c3c2CCC3)cc1`, the host macrophage viability was determined as 122%.

As for `COc1cccc(C(=O)CC2(O)C(=O)Nc3c(C)cccc32)c1` (stereo not given), the host macrophage viability stood at 97.4%.

For `CCn1c(=O)c(N2CCN(C(=O)c3ccc(F)c(Cl)c3)CC2)c(C)n(-c2ccccc2)c1=O`, the host macrophage viability was 112%.

In the case of `COc1cc(/C=N/Nc2ncnc3[nH]cnc23)cc(OC)c1OC`, the host macrophage viability is 93.7%.

For `NS(=O)(=O)c1ccc(CCNC(=O)C(=O)Nc2cc3c4c(c2)CC(=O)N4CCC3)cc1`, the host macrophage viability was found to be 118%.

With `Cc1nc2c(C)cccc2cc1C(=O)Nc1cccc(C(=O)N2CCCCC2)c1`, the host macrophage viability turned out to be 121%.

In the case of `C#CCn1/c(=N/C(=O)CCCC)sc2cc(S(N)(=O)=O)ccc21`, the host macrophage viability is 98.1%.

In the case of `O=C(NCc1cccnc1)c1cnc2n(c1=O)CCS2`, the host macrophage viability was found to be 130%.

Consider `COC(=O)Cn1/c(=N/C(=O)c2ccccc2C)sc2cc(S(C)(=O)=O)ccc21`, for which the host macrophage viability stood at 117%.

For the compound `O=C(CSc1ccc([N+](=O)[O-])cc1[N+](=O)[O-])NC1CCS(=O)(=O)C1` (stereo not given), the host macrophage viability amounted to 109%.

Take `CC(C)c1cc(C(=O)N2CCc3ccccc32)nn1C1CCS(=O)(=O)C1` (stereo not given): the host macrophage viability came to 117%.
